Experimental data taken from article PMC11234457.
Construct, isoform or probe ends are uncertain for at least one entry. For some assays here: Results from cells or extracts need not show a direct contact. For some assays here: Negatives hold for the conditions tested. For some assays here: At least one verdict rests on a figure or table, not on a statement of the authors.

The chains behind the UniProt entries cited, without tags or fusion partners. Residues count along the entry.
UniProt P01106, 16-454: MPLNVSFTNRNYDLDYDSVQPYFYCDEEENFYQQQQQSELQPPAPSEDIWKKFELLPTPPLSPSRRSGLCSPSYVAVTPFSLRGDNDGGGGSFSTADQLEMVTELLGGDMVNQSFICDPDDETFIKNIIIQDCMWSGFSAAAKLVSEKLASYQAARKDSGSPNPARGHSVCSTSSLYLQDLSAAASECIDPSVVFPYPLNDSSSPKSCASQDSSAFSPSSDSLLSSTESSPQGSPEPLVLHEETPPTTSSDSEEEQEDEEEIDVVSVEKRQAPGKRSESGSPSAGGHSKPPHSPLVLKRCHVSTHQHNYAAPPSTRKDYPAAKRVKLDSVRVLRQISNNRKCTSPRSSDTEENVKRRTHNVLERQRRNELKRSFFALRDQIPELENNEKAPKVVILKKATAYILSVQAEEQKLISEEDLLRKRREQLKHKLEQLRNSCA

Columns and labels:
c-Myc (Homo sapiens) [1] = target: c-Myc (Homo sapiens) (UniProt P01106); experiment: competition ELISA; conditions: commercial protein, folded or branched DNA
His-c-Myc [2] = target: His-c-Myc (UniProt P01106); experiment: flow cytometry of Ni-beads; conditions: 200 nM FAM-aptamer, recombinant protein, protein details: His
[3] = test system: c-Myc in overexpressing cell lysate; experiment: streptavidin pull-down; conditions: 5' biotin directly on MA9C1 (thought to impair binding); protein in a lysate after overexpression; label: 5' biotin, FAM, cy3; folded or branched DNA
c-Myc (Homo sapiens) [4] = target: c-Myc (Homo sapiens) (UniProt P01106); experiment: BLI; conditions: value order taken from MA9, MA9C1, "immobilized c-Myc" per legend, commercial protein
His-c-Myc [5] = target: His-c-Myc (UniProt P01106); experiment: flow cytometry; conditions: 200 nM ProMyc; 5' NH2-C6 linked to pomalidomide-PEG4; recombinant protein; protein details: His; folded or branched DNA
[6] = target: endogenous c-Myc in HCT116 total protein (UniProt P01106); experiment: streptavidin pull-down, LC-MS; conditions: protein in an extract, label: 5' biotin (ELISA, pull-down), FAM (flow), single-stranded DNA
[7] = vs biotin-MA9C1, 200 nM, no significant difference among linkers, 5' NH2-C6 linked to pomalidomide-PEG4
[8] = label: 5' biotin, FAM, cy3, folded or branched DNA
[9] = label: 5' biotin (ELISA, pull-down), FAM (flow), single-stranded DNA

Question: Does “AAAAAAAAAAAAAAACGTTACTTCTGTTCGTTCTCATGGCGAACCCTGTATGGCGCGTAAGTCGGGGAGTAACGAAAAA [ProMyc-L15]” bind (c-Myc (Homo sapiens) [1]; [7])?
Answer: binds

Question: Does “AAAAAAAAAACGTTACTTCTGTTCGTTCTCATGGCGAACCCTGTATGGCGCGTAAGTCGGGGAGTAACG [ProMyc-L10]” bind (c-Myc (Homo sapiens) [1]; [7])?
Answer: binds

Question: Does “AAAAACGTTACTTCTGTTCGTTCTCATGGCGAACCCTGTATGGCGCGTAAGTCGGGGAGTAACG [ProMyc-L5]” bind (c-Myc (Homo sapiens) [1]; [7])?
Answer: binds

Question: Does “AAACGTTACTTCTGTTCGTTCTCATGGCGAACCCTGTATGGCGCGTAAGTCGGGGAGTAACGTAAAAAGAGCAACGCAGCAGGGGGCGTGAGGGCGGGAGCGGGGCGGCGGTGCTCAAAA [circPA1-ProMyc]” bind (c-Myc (Homo sapiens) [1]; 100 nM oligonucleotide, consistent with MA9C1, circular, A5 linker phosphorothioate, NH2-T (red T) linked to pomalidomide)?
Answer: binds

Question: Does “CGTTACTTCTGTTCGTTCTCATGGCGAACCCTGTATGGCGCGTAAGTCGGGGAGTAACG [MA9C1]” bind (His-c-Myc [2]; [8])?
Answer: binds

Question: Does “CGTTACTTCTGTTCGTTCTCATGGCGAACCCTGTATGGCGCGTAAGTCGGGGAGTAACG [MA9C1]” bind [3]?
Answer: no binding

Question: What about the Kd (c-Myc (Homo sapiens) [4]; [8]) of the same sequence?
Answer: 29.9 nM

Question: Does “CGTTACTTCTGTTCGTTCTCATGGCGAACCCTGTATGGCGCGTAAGTCGGGGAGTAACG [ProMyc]” bind (His-c-Myc [5])?
Answer: binds

Question: Does “CGTTACTTCTGTTCGTTCTCATGGCGAACCCTGTATGGCGCGTAAGTCGGGGAGTAACGTCTGCCTAGTTCCTTGTCTGATCTCCA [MA9]” bind [6]?
Answer: binds

Question: Does “CGTTACTTCTGTTCGTTCTCATGGCGAACCCTGTATGGCGCGTAAGTCGGGGAGTAACGTCTGCCTAGTTCCTTGTCTGATCTCCA [MA9]” bind (His-c-Myc [2]; [9])?
Answer: binds

Question: And the Kd (c-Myc (Homo sapiens) [4]; [9])?
Answer: 27.4 nM
